Results on 5 molecules are retold here after publication PMC10508983, “Nucleotide-free structures of KIF20A illuminate atypical mechanochemistry in this kinesin-6” (Open Biology, 2023).

No constants are given. Whether binding was seen depends on the method and setting.

Among the targets are KIF20A 1–520 (mouse) (UniProt P97329); KIF20A 25–520 (mouse) (UniProt P97329); KIF20A 55–565 (mouse) (UniProt P97329).
What all share (assay): SEC-MALS; 5 mg ml^-1 of each protein injected into a Superdex 200 10/30 Increase column; MALS and refractive index; both purified
Assay [1] has as its target KIF20A 1–565 (full-length functional motor domain) (mouse) (UniProt P97329).
Assay [2] has as its target KIF20A 55–510 (minimal motor domain construct used for crystallography) (mouse) (UniProt P97329).

B1: KIF20A 1–565 (full-length functional motor domain) (domain or fragment, UniProt P97329 1-565)
chain: MSHRILSPPAGLLSDEDVVDSPILESTAADLRSVVRKDLLSDCSVISASLEDKQALLEDTSEKVKVYLRIRPFLTSELDRQEDQGCVCIENTETLVLQAPKDSFALKSNERGVGQATHKFTFSQIFGPEVGQVAFFNLTMKEMVKDVLKGQNWLIYTYGVTNSGKTYTIQGTSKDAGILPQSLALIFNSLQGQLHPTPDLKPLLSNEVIWLDSKQIRQEEMKKLSLLIGGLQEEELSTSVKKRVHTESRIGASNSFDSGVAGLSSTSQFTSSSQLDETSQLWAQPDTVPVSVPADIRFSVWISFFEIYNELLYDLLEPPSHQHKRQTLRLCEDQNGNPYVKDLNWIHVRDVEEAWKLLKVGRKNQSFASTHMNQQSSRSHSIFSIRILHLQGEGDIVPKISELSLCDLAGSERCKHQKSGERLKEAGNINTSLHTLGRCIAALRQNQQNRSKQNLIPFRDSKLTRVFQGFFTGRGRSCMIVNVNPCASTYDETLHAAKFSALASQLVHAPPVHLGIPSLHSFIKKHSPQVGPGLEKEDKADSDLEDSPEDEADVSVYGKEELLQV
In the case of B1, the binding result in assay [1] is recorded as “no binding (tested: 5 mg ml^-1)”.

B2: KIF20A 1–520 (domain or fragment, UniProt P97329 1-520)
chain: MSHRILSPPAGLLSDEDVVDSPILESTAADLRSVVRKDLLSDCSVISASLEDKQALLEDTSEKVKVYLRIRPFLTSELDRQEDQGCVCIENTETLVLQAPKDSFALKSNERGVGQATHKFTFSQIFGPEVGQVAFFNLTMKEMVKDVLKGQNWLIYTYGVTNSGKTYTIQGTSKDAGILPQSLALIFNSLQGQLHPTPDLKPLLSNEVIWLDSKQIRQEEMKKLSLLIGGLQEEELSTSVKKRVHTESRIGASNSFDSGVAGLSSTSQFTSSSQLDETSQLWAQPDTVPVSVPADIRFSVWISFFEIYNELLYDLLEPPSHQHKRQTLRLCEDQNGNPYVKDLNWIHVRDVEEAWKLLKVGRKNQSFASTHMNQQSSRSHSIFSIRILHLQGEGDIVPKISELSLCDLAGSERCKHQKSGERLKEAGNINTSLHTLGRCIAALRQNQQNRSKQNLIPFRDSKLTRVFQGFFTGRGRSCMIVNVNPCASTYDETLHAAKFSALASQLVHAPPVHLGIPSLH
In the case of B2, the binding result in the assay with KIF20A 1–520 (mouse) is on record as “no binding (tested: 5 mg ml^-1)”.

B3: KIF20A 25–520 (domain or fragment, UniProt P97329 25-520)
chain: ESTAADLRSVVRKDLLSDCSVISASLEDKQALLEDTSEKVKVYLRIRPFLTSELDRQEDQGCVCIENTETLVLQAPKDSFALKSNERGVGQATHKFTFSQIFGPEVGQVAFFNLTMKEMVKDVLKGQNWLIYTYGVTNSGKTYTIQGTSKDAGILPQSLALIFNSLQGQLHPTPDLKPLLSNEVIWLDSKQIRQEEMKKLSLLIGGLQEEELSTSVKKRVHTESRIGASNSFDSGVAGLSSTSQFTSSSQLDETSQLWAQPDTVPVSVPADIRFSVWISFFEIYNELLYDLLEPPSHQHKRQTLRLCEDQNGNPYVKDLNWIHVRDVEEAWKLLKVGRKNQSFASTHMNQQSSRSHSIFSIRILHLQGEGDIVPKISELSLCDLAGSERCKHQKSGERLKEAGNINTSLHTLGRCIAALRQNQQNRSKQNLIPFRDSKLTRVFQGFFTGRGRSCMIVNVNPCASTYDETLHAAKFSALASQLVHAPPVHLGIPSLH
With B3, the binding result with KIF20A 25–520 (mouse) was “no binding (tested: 5 mg ml^-1)”.

B4: KIF20A 55–565 (domain or fragment, UniProt P97329 55-565)
chain: ALLEDTSEKVKVYLRIRPFLTSELDRQEDQGCVCIENTETLVLQAPKDSFALKSNERGVGQATHKFTFSQIFGPEVGQVAFFNLTMKEMVKDVLKGQNWLIYTYGVTNSGKTYTIQGTSKDAGILPQSLALIFNSLQGQLHPTPDLKPLLSNEVIWLDSKQIRQEEMKKLSLLIGGLQEEELSTSVKKRVHTESRIGASNSFDSGVAGLSSTSQFTSSSQLDETSQLWAQPDTVPVSVPADIRFSVWISFFEIYNELLYDLLEPPSHQHKRQTLRLCEDQNGNPYVKDLNWIHVRDVEEAWKLLKVGRKNQSFASTHMNQQSSRSHSIFSIRILHLQGEGDIVPKISELSLCDLAGSERCKHQKSGERLKEAGNINTSLHTLGRCIAALRQNQQNRSKQNLIPFRDSKLTRVFQGFFTGRGRSCMIVNVNPCASTYDETLHAAKFSALASQLVHAPPVHLGIPSLHSFIKKHSPQVGPGLEKEDKADSDLEDSPEDEADVSVYGKEELLQV
On to B4, for which, in the assay with KIF20A 55–565 (mouse), the binding entry is reported as “no binding (tested: 5 mg ml^-1)”.

B5: KIF20A 55–510 (minimal motor domain construct used for crystallography) (domain or fragment, UniProt P97329 55-510)
chain: ALLEDTSEKVKVYLRIRPFLTSELDRQEDQGCVCIENTETLVLQAPKDSFALKSNERGVGQATHKFTFSQIFGPEVGQVAFFNLTMKEMVKDVLKGQNWLIYTYGVTNSGKTYTIQGTSKDAGILPQSLALIFNSLQGQLHPTPDLKPLLSNEVIWLDSKQIRQEEMKKLSLLIGGLQEEELSTSVKKRVHTESRIGASNSFDSGVAGLSSTSQFTSSSQLDETSQLWAQPDTVPVSVPADIRFSVWISFFEIYNELLYDLLEPPSHQHKRQTLRLCEDQNGNPYVKDLNWIHVRDVEEAWKLLKVGRKNQSFASTHMNQQSSRSHSIFSIRILHLQGEGDIVPKISELSLCDLAGSERCKHQKSGERLKEAGNINTSLHTLGRCIAALRQNQQNRSKQNLIPFRDSKLTRVFQGFFTGRGRSCMIVNVNPCASTYDETLHAAKFSALASQLVHAP
Consider B5, for which the binding entry in assay [2] is on record as “no binding (tested: 5 mg ml^-1)”.
